Record: PubChem BioAssay AID1224830 (NIAID, 2016)

Assay: 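Genes whose knock-down alters the TNF-alpha reporter response to LPS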 (primary screen)
System: human THP-1 monocytic leukaemia cells, TNF dual-luciferase reporter clone, PMA-differentiated to macrophage-like cells
Reagent: siRNA pool against human genes, 50 nM
Timing: LPS for 4 h, given about 3 days after siRNA transfection
Treatment: bacterial LPS (TLR4 ligand), 10 ng/ml
Measurement: 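Ratio of firefly to renilla light, scaled to the plate median and expressed as a robust z-score per replicate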
Scale: TNF reporter robust z-score: higher = stronger TNF reporter response to LPS
Rule for the call: 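Each well counts as active if its z-score is over 2.8 or under -1.5; controls are left without a call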
This is an unselected part of about 18,000 reagents. About 2,900 of them (16%) were called active. 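Calls are made per well; low scores hint the gene aids the LPS response, high scores that it dampens it.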 Unmarked entries are inactive. Repeated entries: four replicate wells of each siRNA pool.

Depletion of ITPR3 came out at: TNF reporter robust z-score -0.85.
For ITPR3, the entry reads TNF reporter robust z-score -1.09.
With knock-down of ITPR3 the results were TNF reporter robust z-score -1.32.
With knock-down of ITPR3 the results were TNF reporter robust z-score -0.82.
PPP2R3C scored TNF reporter robust z-score 0.36.
Depletion of PPP2R3C gave: TNF reporter robust z-score 0.64.
For PPP2R3C, the entry reads TNF reporter robust z-score 0.74.
Depletion of PPP2R3C came out at: TNF reporter robust z-score -0.3.
For NDUFB8, the entry reads TNF reporter robust z-score 0.96.
With knock-down of NDUFB8, the record shows TNF reporter robust z-score 0.07.
Silencing of NDUFB8 resulted in: TNF reporter robust z-score -0.25.
After knock-down of NDUFB8 the results were TNF reporter robust z-score -0.41.
Silencing of PKMYT1 came out at: TNF reporter robust z-score -0.43.
Against PKMYT1 the deposit lists TNF reporter robust z-score 2.8 (active).
PKMYT1 showed TNF reporter robust z-score 0.14.
Depletion of PKMYT1 gave: TNF reporter robust z-score 0.55.
For PPP1R1A, the values are TNF reporter robust z-score 1.37.
For PPP1R1A, the entry reads TNF reporter robust z-score 3.05 (active).
After knock-down of PPP1R1A, the screen gave TNF reporter robust z-score 1.88.
Silencing of PPP1R1A resulted in: TNF reporter robust z-score 0.22.
For BLOC1S4 the deposit lists TNF reporter robust z-score -0.07.
With knock-down of BLOC1S4, the record shows TNF reporter robust z-score -0.3.
BLOC1S4 showed TNF reporter robust z-score -0.28.
BLOC1S4 scored TNF reporter robust z-score -0.45.
For CCNB1, the values are TNF reporter robust z-score -1.02.
Knock-down of CCNB1 resulted in: TNF reporter robust z-score -0.13.
Against CCNB1, the values are TNF reporter robust z-score -0.72.
CCNB1 showed TNF reporter robust z-score -0.41.
With knock-down of CTU1, the record shows TNF reporter robust z-score 0.13.
Depletion of CTU1 came out at: TNF reporter robust z-score -0.47.
CTU1 showed TNF reporter robust z-score -0.41.
CTU1 gave TNF reporter robust z-score -0.28.
Knock-down of RPL13 resulted in: TNF reporter robust z-score 1.63.
RPL13 gave TNF reporter robust z-score -0.05.
Depletion of RPL13 gave: TNF reporter robust z-score 1.37.
With knock-down of RPL13, the record shows TNF reporter robust z-score 1.39.
Knock-down of INSC came out at: TNF reporter robust z-score -0.16.
After knock-down of INSC, the screen gave TNF reporter robust z-score 0.18.
For INSC, the values are TNF reporter robust z-score -0.06.
Silencing of INSC gave: TNF reporter robust z-score 0.05.
FAM241A gave TNF reporter robust z-score -1.18.
FAM241A scored TNF reporter robust z-score -1.22.
FAM241A scored TNF reporter robust z-score -1.91 (active).
Against FAM241A, the entry reads TNF reporter robust z-score -1.68 (active).
Silencing of NAALAD2 gave: TNF reporter robust z-score 0.02.
With knock-down of NAALAD2, the screen gave TNF reporter robust z-score -0.87.
Silencing of NAALAD2 resulted in: TNF reporter robust z-score -0.85.
With knock-down of NAALAD2 the results were TNF reporter robust z-score -0.9.

Quoted from the entries so far (6 entries):
PPP1R1A | TNF reporter robust z-score: 0.22
BLOC1S4 | TNF reporter robust z-score: -0.07
BLOC1S4 | TNF reporter robust z-score: -0.3
BLOC1S4 | TNF reporter robust z-score: -0.28
BLOC1S4 | TNF reporter robust z-score: -0.45
CCNB1 | TNF reporter robust z-score: -1.02
